Results taken from the supplement of paper PMC12067093, “Discovery and optimisation of a covalent ligand for TRIM25 and its application to targeted protein ubiquitination” (Chemical Science, 2025).
The other results are listed elsewhere or left out.

Amino acid sequences for entries named in this document (tags omitted). A change or cut given only in a name is not applied to a line headed by its entry.
UniProt Q8TCF1: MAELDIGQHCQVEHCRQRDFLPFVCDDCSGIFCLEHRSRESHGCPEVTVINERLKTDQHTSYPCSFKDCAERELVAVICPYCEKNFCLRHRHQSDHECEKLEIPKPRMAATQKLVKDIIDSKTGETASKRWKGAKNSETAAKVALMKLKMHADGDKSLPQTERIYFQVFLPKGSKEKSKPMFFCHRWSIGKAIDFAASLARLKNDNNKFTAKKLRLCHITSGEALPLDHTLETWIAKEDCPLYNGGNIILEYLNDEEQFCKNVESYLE
UniProt Q9NUD5: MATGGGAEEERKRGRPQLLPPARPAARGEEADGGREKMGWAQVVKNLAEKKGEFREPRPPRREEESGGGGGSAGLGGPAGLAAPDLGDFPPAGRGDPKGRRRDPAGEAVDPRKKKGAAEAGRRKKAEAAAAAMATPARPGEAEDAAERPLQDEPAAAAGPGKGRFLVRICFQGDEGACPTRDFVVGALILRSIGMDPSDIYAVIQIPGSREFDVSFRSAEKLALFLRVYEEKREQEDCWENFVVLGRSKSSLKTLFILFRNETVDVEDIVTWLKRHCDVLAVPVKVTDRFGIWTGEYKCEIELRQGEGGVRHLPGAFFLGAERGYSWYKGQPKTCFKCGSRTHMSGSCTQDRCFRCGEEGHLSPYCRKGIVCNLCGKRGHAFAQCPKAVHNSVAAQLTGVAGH
UniProt Q9C0E2: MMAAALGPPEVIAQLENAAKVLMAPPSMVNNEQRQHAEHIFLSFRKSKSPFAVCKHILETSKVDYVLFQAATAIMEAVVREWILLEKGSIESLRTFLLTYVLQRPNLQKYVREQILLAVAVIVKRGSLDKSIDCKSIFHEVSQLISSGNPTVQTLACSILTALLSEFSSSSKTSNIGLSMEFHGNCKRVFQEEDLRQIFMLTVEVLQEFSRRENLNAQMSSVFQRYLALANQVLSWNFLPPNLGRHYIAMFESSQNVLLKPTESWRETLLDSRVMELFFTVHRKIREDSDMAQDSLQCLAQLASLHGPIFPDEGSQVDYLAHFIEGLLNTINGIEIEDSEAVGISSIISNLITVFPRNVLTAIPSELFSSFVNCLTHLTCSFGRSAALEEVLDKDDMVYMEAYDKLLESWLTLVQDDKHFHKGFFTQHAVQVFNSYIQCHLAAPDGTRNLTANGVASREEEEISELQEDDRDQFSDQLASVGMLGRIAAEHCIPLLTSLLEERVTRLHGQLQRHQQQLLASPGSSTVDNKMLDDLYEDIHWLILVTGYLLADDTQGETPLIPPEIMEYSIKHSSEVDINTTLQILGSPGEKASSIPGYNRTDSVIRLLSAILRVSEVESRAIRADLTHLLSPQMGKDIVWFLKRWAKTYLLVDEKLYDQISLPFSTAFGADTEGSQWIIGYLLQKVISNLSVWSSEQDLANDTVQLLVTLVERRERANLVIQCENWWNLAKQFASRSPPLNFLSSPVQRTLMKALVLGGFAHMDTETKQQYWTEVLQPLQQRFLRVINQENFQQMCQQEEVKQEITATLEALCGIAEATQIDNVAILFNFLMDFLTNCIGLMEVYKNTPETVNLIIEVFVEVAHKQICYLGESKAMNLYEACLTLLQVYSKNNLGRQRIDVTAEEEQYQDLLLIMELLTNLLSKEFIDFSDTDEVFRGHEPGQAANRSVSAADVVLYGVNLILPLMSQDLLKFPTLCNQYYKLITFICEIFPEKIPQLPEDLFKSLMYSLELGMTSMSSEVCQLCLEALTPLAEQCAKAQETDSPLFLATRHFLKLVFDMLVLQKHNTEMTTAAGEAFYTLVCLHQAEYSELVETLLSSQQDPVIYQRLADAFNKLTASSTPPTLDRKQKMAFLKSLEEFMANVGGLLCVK
UniProt O75132: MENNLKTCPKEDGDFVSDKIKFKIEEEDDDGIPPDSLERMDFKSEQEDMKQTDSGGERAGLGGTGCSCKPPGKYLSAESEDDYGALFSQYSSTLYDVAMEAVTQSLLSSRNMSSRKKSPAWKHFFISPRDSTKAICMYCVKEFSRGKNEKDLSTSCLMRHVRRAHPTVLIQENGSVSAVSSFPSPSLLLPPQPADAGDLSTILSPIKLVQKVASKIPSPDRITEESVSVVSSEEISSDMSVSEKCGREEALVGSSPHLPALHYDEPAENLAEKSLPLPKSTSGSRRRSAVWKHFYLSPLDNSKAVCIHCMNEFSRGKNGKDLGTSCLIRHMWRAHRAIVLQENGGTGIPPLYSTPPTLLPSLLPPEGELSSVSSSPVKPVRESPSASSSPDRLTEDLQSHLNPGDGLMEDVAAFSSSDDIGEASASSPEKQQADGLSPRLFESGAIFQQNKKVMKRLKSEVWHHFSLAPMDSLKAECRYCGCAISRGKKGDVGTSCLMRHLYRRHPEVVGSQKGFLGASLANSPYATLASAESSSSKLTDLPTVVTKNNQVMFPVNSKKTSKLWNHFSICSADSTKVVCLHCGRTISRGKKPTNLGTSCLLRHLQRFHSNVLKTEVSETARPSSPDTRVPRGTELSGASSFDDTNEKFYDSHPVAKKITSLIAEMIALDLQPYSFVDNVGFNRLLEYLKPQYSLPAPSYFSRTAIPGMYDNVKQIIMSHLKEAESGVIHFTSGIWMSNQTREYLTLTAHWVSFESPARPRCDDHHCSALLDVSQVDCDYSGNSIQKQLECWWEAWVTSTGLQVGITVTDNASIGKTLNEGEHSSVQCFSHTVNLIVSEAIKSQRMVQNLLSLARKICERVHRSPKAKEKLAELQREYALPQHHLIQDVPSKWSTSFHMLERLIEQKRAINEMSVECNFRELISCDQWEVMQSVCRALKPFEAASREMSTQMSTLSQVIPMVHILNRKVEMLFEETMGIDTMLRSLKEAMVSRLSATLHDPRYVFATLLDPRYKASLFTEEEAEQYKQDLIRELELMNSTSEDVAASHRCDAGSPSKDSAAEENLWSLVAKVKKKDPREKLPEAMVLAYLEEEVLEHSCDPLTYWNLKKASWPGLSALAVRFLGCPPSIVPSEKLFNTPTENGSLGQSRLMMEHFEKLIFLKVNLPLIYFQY
UniProt Q9H0D6: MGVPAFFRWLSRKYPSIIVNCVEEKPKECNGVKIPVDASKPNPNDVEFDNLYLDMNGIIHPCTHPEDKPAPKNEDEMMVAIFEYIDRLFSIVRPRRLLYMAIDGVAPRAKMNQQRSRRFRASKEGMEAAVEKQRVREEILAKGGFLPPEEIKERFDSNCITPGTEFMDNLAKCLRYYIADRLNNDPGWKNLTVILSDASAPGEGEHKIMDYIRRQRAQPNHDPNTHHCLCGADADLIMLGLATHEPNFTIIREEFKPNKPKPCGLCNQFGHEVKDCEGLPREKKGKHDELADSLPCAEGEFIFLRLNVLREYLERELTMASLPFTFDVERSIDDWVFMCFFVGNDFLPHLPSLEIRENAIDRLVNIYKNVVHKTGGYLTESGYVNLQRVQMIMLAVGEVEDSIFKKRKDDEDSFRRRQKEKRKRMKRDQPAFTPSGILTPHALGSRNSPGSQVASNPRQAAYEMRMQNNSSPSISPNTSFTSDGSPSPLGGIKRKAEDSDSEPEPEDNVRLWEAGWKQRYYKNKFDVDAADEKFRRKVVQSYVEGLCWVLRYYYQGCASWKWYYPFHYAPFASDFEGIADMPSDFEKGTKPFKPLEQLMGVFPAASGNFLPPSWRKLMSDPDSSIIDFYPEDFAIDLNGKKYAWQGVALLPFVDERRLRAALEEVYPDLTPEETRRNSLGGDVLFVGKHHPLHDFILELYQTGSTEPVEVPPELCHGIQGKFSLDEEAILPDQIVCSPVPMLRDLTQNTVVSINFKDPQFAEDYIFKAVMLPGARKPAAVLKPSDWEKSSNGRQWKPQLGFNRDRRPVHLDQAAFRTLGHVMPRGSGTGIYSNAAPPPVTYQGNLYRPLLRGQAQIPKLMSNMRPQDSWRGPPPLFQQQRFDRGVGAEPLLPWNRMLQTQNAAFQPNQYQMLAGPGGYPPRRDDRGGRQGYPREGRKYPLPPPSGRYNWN
UniProt O14980, whole entry, looked up: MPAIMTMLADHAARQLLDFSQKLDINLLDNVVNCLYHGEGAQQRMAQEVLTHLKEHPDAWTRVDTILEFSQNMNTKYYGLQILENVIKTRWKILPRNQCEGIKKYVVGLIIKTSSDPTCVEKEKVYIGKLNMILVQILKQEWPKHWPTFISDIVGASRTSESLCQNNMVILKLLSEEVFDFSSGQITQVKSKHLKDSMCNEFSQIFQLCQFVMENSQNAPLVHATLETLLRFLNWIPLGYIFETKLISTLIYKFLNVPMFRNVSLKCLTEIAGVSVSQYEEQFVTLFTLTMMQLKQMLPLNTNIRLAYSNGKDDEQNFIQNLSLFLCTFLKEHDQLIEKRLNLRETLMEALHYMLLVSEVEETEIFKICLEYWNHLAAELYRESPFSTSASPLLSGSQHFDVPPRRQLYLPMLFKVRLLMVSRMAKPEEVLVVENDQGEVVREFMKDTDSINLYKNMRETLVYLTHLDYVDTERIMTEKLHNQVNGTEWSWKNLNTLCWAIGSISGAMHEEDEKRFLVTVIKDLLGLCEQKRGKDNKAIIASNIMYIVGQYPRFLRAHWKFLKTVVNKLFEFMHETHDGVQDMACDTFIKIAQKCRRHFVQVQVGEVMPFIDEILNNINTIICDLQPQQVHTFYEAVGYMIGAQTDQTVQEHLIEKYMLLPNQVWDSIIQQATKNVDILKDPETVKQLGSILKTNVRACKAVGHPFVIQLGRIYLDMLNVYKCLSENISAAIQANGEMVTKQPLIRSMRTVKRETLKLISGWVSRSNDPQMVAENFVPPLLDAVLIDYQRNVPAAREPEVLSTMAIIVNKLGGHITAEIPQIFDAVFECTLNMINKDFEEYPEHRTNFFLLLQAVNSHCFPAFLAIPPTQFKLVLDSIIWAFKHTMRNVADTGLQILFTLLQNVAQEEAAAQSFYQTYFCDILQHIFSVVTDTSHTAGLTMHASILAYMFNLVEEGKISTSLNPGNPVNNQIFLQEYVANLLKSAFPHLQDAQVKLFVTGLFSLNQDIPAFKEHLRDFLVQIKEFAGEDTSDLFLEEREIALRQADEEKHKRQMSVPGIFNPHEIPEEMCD
UniProt P62258: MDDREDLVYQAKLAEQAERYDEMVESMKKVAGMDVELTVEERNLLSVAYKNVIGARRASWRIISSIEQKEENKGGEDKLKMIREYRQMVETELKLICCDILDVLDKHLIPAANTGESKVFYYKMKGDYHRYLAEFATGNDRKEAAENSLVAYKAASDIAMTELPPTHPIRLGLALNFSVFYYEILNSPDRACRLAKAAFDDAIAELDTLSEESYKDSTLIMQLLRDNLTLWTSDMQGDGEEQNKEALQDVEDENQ
UniProt P27348: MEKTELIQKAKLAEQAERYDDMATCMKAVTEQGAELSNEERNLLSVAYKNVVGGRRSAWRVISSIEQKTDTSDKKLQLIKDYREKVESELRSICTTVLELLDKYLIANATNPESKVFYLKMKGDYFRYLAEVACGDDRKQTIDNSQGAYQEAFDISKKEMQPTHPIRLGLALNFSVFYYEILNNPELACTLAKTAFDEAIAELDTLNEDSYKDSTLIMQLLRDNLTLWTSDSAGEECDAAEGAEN
UniProt O95625: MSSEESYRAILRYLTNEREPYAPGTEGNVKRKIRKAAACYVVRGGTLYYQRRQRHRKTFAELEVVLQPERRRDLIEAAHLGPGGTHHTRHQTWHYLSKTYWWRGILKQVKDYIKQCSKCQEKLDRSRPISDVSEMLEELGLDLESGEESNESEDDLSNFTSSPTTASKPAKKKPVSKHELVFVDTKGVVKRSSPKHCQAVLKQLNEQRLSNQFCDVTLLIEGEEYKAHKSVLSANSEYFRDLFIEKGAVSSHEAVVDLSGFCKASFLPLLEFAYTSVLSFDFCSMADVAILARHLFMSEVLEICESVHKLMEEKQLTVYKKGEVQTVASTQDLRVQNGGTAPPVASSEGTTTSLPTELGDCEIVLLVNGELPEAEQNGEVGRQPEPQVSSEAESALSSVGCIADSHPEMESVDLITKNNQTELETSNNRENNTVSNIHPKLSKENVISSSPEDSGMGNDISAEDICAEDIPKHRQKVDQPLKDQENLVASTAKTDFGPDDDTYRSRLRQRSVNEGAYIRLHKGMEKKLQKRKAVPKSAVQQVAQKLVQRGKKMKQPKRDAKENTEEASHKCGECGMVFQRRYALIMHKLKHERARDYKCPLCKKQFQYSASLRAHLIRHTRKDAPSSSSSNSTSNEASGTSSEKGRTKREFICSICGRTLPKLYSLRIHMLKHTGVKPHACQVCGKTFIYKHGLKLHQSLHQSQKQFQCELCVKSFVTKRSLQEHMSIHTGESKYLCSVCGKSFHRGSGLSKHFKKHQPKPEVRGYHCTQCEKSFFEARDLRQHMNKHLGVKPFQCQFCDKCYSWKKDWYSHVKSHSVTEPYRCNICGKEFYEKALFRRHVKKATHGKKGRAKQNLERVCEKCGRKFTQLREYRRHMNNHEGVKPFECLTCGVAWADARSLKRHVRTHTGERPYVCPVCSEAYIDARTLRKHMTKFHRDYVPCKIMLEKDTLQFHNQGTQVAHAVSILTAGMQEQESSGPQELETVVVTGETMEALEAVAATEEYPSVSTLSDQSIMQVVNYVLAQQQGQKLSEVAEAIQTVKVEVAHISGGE

Compound: Cc1cc(ccc1-c1ccccc1)C(=O)N1CCCN(CC1)C(=O)CCl [compound 10]
Test: probe-labelled cysteine peptide fold change vs DMSO (competition) (log2 fold change); higher = less target engagement (more negative = stronger competition)
Settings: THP-1, incubation time: 4 h
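Note: competitive profiling in live THP-1 cells: cysteine peptides tagged with an iodoacetamide desthiobiotin (IA-DTB) probe, intensity after compound treatment relative to DMSO-treated cells.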

Target	probe-labelled cysteine peptide fold change (10 µM)	probe-labelled cysteine peptide fold change (50 µM)
ZFAND1_Q8TCF1_25_DFLPFVCDDCSGIFCLEHR (UniProt Q8TCF1)	0.246	0.0429
YWHAG_P61981_194_LGLALNYSVFYYEIQNAPEQACHLAK (UniProt P61981)	0.0292	0.41
ZCCHC3_Q9NUD5_375_GIVCNLCGK (UniProt Q9NUD5)	0.0461	0.0417
XPOT_O43592_900_QTFDLADAQTVLALSECAVTLK (UniProt O43592)	0.288	0.193
XRCC5_P13010_249_HSIHWPCR (UniProt P13010)	0.0754	0.257
ZCRB1_Q8TBF4_67_DSAQNCTR (UniProt Q8TBF4)	-0.11	0.0217
XXYLT1_Q8NBI6_350_LFHVLDCTWNR (UniProt Q8NBI6)	0.0185	0.0995
XPO4_Q9C0E2_54_SPFAVCK (UniProt Q9C0E2)	0.0547	0.164
XRN1_Q8IZH2_1487_LSNGLLVHGPQCHSENEAK (UniProt Q8IZH2)	0.144	-0.0844
XRN1_Q8IZH2_132_FDSNCITPGTEFMAR (UniProt Q8IZH2)	0.0138	0.168
ZC3H11A_O75152_588_SVLTPLRGDVASCNTQVAEKPVLTAVPGITR (UniProt O75152)	0.00554	-0.151
ZBED4_O75132_582_VVCLHCGR (UniProt O75132)	-0.106	-0.611
XRN2_Q9H0D6_266_EEFKPNKPKPCGLCNQFGHEVK (UniProt Q9H0D6)	0.13	-0.465
ZCCHC3_Q9NUD5_299_CEIELR (UniProt Q9NUD5)	0.203	0.323
YES1_P07947_42_YRPENTPEPVSTSVSHYGAEPTTVSPCPSSSAK (UniProt P07947)	-0.345	-0.501
XRCC5_P13010_339_CFSVLGFCK (UniProt P13010)	-0.192	-0.088
ZC3H11A_O75152_588_GDVASCNTQVAEK (UniProt O75152)	-0.233	0.19
XPO6_Q96QU8_299_MASVNGSSQNCVSGQER (UniProt Q96QU8)	-0.0798	-0.214
ZCCHC8_Q6NZY4_607_KSEAGHASSPDSEVTSLCQK (UniProt Q6NZY4)	0.0879	-0.446
ZC3HAV1_Q7Z2W4_168_QQICNQQPPCSR (UniProt Q7Z2W4)	0.0782	-0.158
XXYLT1_Q8NBI6_386_IYHGNCNTPIPED (UniProt Q8NBI6)	-0.00561	-0.0309
ZFAND2A_Q8N6M9_84_GQIPDVVVGDHIDRDCDSHPGK (UniProt Q8N6M9)	1.7	3.88

Target	probe-labelled cysteine peptide fold change (10 µM)	probe-labelled cysteine peptide fold change (50 µM)
XPO1_O14980_528_DLLGLCEQKR (UniProt O14980)	-0.248	-1.11
ZC3H12B_Q5HYM0_361_KQPCPYGK (UniProt Q5HYM0)	-0.0664	0.0174
XRN1_Q8IZH2_598_NQHSECLMCWYDRDTEFIYPSPWPEK (UniProt Q8IZH2)	-0.137	0.296
XPO5_Q9HAV4_706_SCDPGLEDPCGLNR (UniProt Q9HAV4)	0.112	0.0391
ZCCHC3_Q9NUD5_178_ICFQGDEGACPTR (UniProt Q9NUD5)	-0.101	-0.0525
ZFAND1_Q8TCF1_33_DFLPFVCDDCSGIFCLEHR (UniProt Q8TCF1)	0.107	-0.0951
XRCC1_P18887_20_HVVSCSSQDSTHCAENLLK (UniProt P18887)	0.234	0.244
ZFC3H1_O60293_1864_FCSVMPANSGLALR (UniProt O60293)	-0.0336	-0.0942
XPO7_Q9UIA9_525_VSFASTDEQDAMDGELVCR (UniProt Q9UIA9)	0.222	0.32
ZBTB14_O43829_391_PFVCGSCTK (UniProt O43829)	0.104	-0.263
ZC3HAV1_Q7Z2W4_867_FTEGNITYTSPPPQFDSCVDTR (UniProt Q7Z2W4)	-0.143	-0.069
YY1AP1_Q9H869_689_AHMNVDIACAVADGENAFQGLEPK (UniProt Q9H869)	-0.0161	0.141
XRCC5_P13010_418_HNYECLVYVQLPFMEDLR (UniProt P13010)	0.121	0.3
ZC3H11A_O75152_588_GDVASCNTQVAEKPVLTAVPGITR (UniProt O75152)	-0.2	-0.189
ZCCHC3_Q9NUD5_372+375_GIVCNLCGK (UniProt Q9NUD5)	-0.0364	-0.0559
ZC3H12D_A2A288_260_KPKPPEPSWQHCPYGK (UniProt A2A288)	0.0532	-0.227
ZDHHC12_Q96GR4_102_YCLVLQPLR (UniProt Q96GR4)	-0.0118	-0.279
YWHAE_P62258_97+98_LICCDILDVLDK (UniProt P62258)	-0.0595	-0.303
YWHAZ_P63104_25_YDDMAACMK (UniProt P63104)	-0.0429	-0.13
ZC3H11A_O75152_588_SVLTPLRGDVASCNTQVAEK (UniProt O75152)	-0.0147	0.00571
XPO6_Q96QU8_547_LNITAENDCR (UniProt Q96QU8)	0.114	-0.0152
YWHAQ_P27348_134_YLAEVACGDDR (UniProt P27348)	-0.0267	0.185

Target	probe-labelled cysteine peptide fold change (10 µM)	probe-labelled cysteine peptide fold change (50 µM)
YWHAE_P62258_97_LICCDILDVLDK (UniProt P62258)	0.0247	-0.362
YME1L1_Q96TA2_433_ANAPCVIFIDELDSVGGKR (UniProt Q96TA2)	0.0418	-0.109
ZFAND1_Q8TCF1_79_ELVAVICPYCEK (UniProt Q8TCF1)	0.0327	0.281
ZDHHC13_Q8IUH4_51_EALPLIEDSSNCDIVK (UniProt Q8IUH4)	-0.351	-0.0596
YY1AP1_Q9H869_734_QCQEGLSENSAYR (UniProt Q9H869)	-0.0153	0.349
XPO5_Q9HAV4_1131_DSLDQFDCK (UniProt Q9HAV4)	-0.325	-0.499
ZBED4_O75132_599_KPTNLGTSCLLR (UniProt O75132)	-0.105	-0.465
ZBTB11_O95625_737_YLCSVCGK (UniProt O95625)	0.0656	0.437
XPO5_Q9HAV4_605_HACSSIIK (UniProt Q9HAV4)	0.0117	-0.0217
XPO7_Q9UIA9_1038_QQAMHLCFENLMEGIER (UniProt Q9UIA9)	0.0781	0.203
ZCCHC3_Q9NUD5_372_KGIVCNLCGK (UniProt Q9NUD5)	0.0789	-0.311
XPO5_Q9HAV4_221_AQANCR (UniProt Q9HAV4)	0.071	0.419
XRN2_Q9H0D6_21_KYPSIIVNCVEEKPK (UniProt Q9H0D6)	-0.134	0.0446
YWHAQ_P27348_25_LAEQAERYDDMATCMK (UniProt P27348)	-0.259	-0.845
ZBTB7A_O95365_490_DGCNGVPSR (UniProt O95365)	0.000157	-0.0775
XPO4_Q9C0E2_492_IAAEHCIPLLTSLLEER (UniProt Q9C0E2)	0.012	0.2
YTHDC2_Q9H6S0_777_MPLQELCLHTK (UniProt Q9H6S0)	-0.0301	-0.184
YARS_P54577_501_ISEECIAQWK (UniProt P54577)	-0.244	-0.109
ZBTB11_O95625_796_HLGVKPFQCQFCDK (UniProt O95625)	0.085	-0.175
ZBED4_O75132_1124_FLGCPPSIVPSEK (UniProt O75132)	-0.0503	0.183
YDJC_A8MPS7_18_LVVTADDFGYCPR (UniProt A8MPS7)	0.0274	-0.245
ZBTB34_Q8NCN2_32_LCDIIVHIQGQPFR (UniProt Q8NCN2)	0.104	0.161

Target	probe-labelled cysteine peptide fold change (10 µM)	probe-labelled cysteine peptide fold change (50 µM)
ZCCHC10_Q8TBK6_58_CLEFGHWTYECTGK (UniProt Q8TBK6)	0.067	0.38
XRCC5_P13010_296_ETVYCLNDDDETEVLKEDIIQGFR (UniProt P13010)	-0.272	-0.189
ZC3HAV1L_Q96H79_15_VLCAHGGR (UniProt Q96H79)	0.416	0.426
YWHAH_Q04917_112_NCNDFQYESK (UniProt Q04917)	0.0168	0.124
ZC3HAV1_Q7Z2W4_831_NCPYDAK (UniProt Q7Z2W4)	-0.115	0.0469
XPO5_Q9HAV4_977_EVMDLITVCCVSK (UniProt Q9HAV4)	-0.0762	-0.196
ZFAND1_Q8TCF1_15_AELDIGQHCQVEHCR (UniProt Q8TCF1)	0.166	0.046
XPO5_Q9HAV4_1157_LIAGCIGK (UniProt Q9HAV4)	0.149	0.293
ZC3H7A_Q8IWR0_98_IACYSNMGFHDK (UniProt Q8IWR0)	0.183	-0.18
YY1_P25490_390_IHTGDRPYVCPFDGCNK (UniProt P25490)	0.136	0.715
ZC3H11A_O75152_636_CAAQTLEK (UniProt O75152)	-0.182	-0.369
ZC3H13_Q5T200_1592_ASLLSNLGPCCK (UniProt Q5T200)	-0.166	-0.471
XPO4_Q9C0E2_1149_SLEEFMANVGGLLCVK (UniProt Q9C0E2)	0.366	-0.106
ZER1_Q7Z7L7_337_RPLQFLGLFENSLCR (UniProt Q7Z7L7)	-0.124	-0.0583
ZFC3H1_O60293_1405_DNPEIWCHYLR (UniProt O60293)	-0.127	-0.124
XPOT_O43592_56_FFCFQVLEHQVK (UniProt O43592)	0.231	0.376
XPO6_Q96QU8_886_EQLAESILHEGSTGCR (UniProt Q96QU8)	-0.217	0.331
ZFAND5_O76080_170+175_CGNLFCGLHR (UniProt O76080)	0.321	-0.292
XPO1_O14980_99_NQCEGIK (UniProt O14980)	-0.132	0.16
ZBTB11_O95625_214_LSNQFCDVTLLIEGEEYK (UniProt O95625)	-0.115	0.206
